Values from PubChem BioAssay AID743121 (NCATS, 2013).
In all, the deposit lists about 26,000 reagents; shown is an unselected part. Of all reagents, 167 (0.63%) got an active call. 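Calls are per gene from RSA p-values that are not deposited; an individual active-marked siRNA can sensitise only weakly.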 Unmarked entries are inactive. Reagents against one gene are numbered here. Reagent sequences are not shown.

Test: 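Partners whose loss is lethal together with topoisomerase I blockade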 (primary screen)
System: MDA-MB-231 cells, a human breast cancer line
Knock-down reagent: single siRNA against human genes, 20 nM siRNA (0.8 pmol per well)
Timing: 120 h (drug added 48 h after transfection, read 72 h later)
Conditions: camptothecin 20 nM (about EC30) for 72 h; vehicle 0.1% DMSO in parallel plates
Read-out: 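Cell viability by ATP luminescence (CellTiter-Glo) as % of non-targeting siRNA wells, and the log2 ratio of viability without drug over viability with camptothecin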
Scale: log2 vehicle/camptothecin viability: higher = stronger sensitisation to camptothecin; viability with camptothecin and viability without drug: higher = more viable cells
Hit rule: 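Each gene scored by redundant siRNA activity (RSA) over its individual siRNA ratios; a gene is called active at p < 0.001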

target | siRNA no. | log2 vehicle/camptothecin viability | viability with camptothecin (% of control) | viability without drug (% of control)
SETD7 | 1 | -0.0655 | 110 | 105
SETD7 | 2 | 0.228 | 91.7 | 107
SETD7 | 3 | -0.186 | 84.7 | 74.5
CAPN15 | 1 | -0.118 | 76.7 | 70.7
CAPN15 | 2 | -0.711 | 68.9 | 42.1
CAPN15 | 3 | -0.465 | 54.6 | 39.5
CAPN15 | 4 | -0.267 | 78.4 | 65.2
NTRK2 | 1 | 0.152 | 96.1 | 107
NTRK2 | 2 | -0.0228 | 93.8 | 92.3
NTRK2 | 3 | 0.0265 | 98.1 | 100
NTRK2 | 4 | -0.195 | 82.3 | 71.9
CYB5D2 | 1 | 0.358 | 83.5 | 107
CYB5D2 | 2 | -0.371 | 65 | 50.2
CYB5D2 | 3 | 0.117 | 67.2 | 72.9
ETNPPL | 1 | -0.0294 | 100 | 98.4
ETNPPL | 2 | -0.131 | 73.7 | 67.3
ETNPPL | 3 | -0.441 | 70.3 | 51.8
ETNPPL | 4 | -0.0676 | 99.4 | 94.9

Records above whose target name starts with S or s:
target | siRNA no. | log2 vehicle/camptothecin viability | viability with camptothecin (% of control) | viability without drug (% of control)
SETD7 | 1 | -0.0655 | 110 | 105
SETD7 | 2 | 0.228 | 91.7 | 107
SETD7 | 3 | -0.186 | 84.7 | 74.5

The listing continues.
target | siRNA no. | log2 vehicle/camptothecin viability | viability with camptothecin (% of control) | viability without drug (% of control)
HERPUD2 | 1 | 0.021 | 82.5 | 83.8
HERPUD2 | 2 | 0.0617 | 61.2 | 63.9
HERPUD2 | 3 | -0.188 | 113 | 99.4
HERPUD2 | 4 | -0.115 | 84 | 77.6
MDK | 1 | 0.0591 | 78.9 | 82.2
MDK | 2 | 0.164 | 78.1 | 87.5
MDK | 3 | 0.0637 | 71.3 | 74.6
MDK | 4 | -0.00727 | 107 | 106
PCBD2 | 1 | -0.486 | 53.7 | 38.3
PCBD2 | 2 | -0.0396 | 62.8 | 61.1
PCBD2 | 3 | -0.307 | 84.1 | 67.9
PCBD2 | 4 | -0.159 | 69.7 | 62.4
